Here are results for 107 sequences from PubChem BioAssay AID1508600 (Functional Genomics Laboratory (NCATS/FGL), 2020).

Screen size: about 53,000 sequences; about 3,700 (7%) were called active.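 The calls were made as follows: active = gene knockdowns whose robust z-score for IL-1 alpha signal is at least 2 or at most -2, so actives lie on both sides; inactive = the rest.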 The list shows a part of the results.

This assay is described as follows: Components of the Cytosolic LPS Sensing Pathway: Gene Identification via Genome-wide siRNA Screen.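 Also: robust z of the log signal after scaling to non-targeting control siRNA wells of the plate.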 The note with it: RAW264.7 macrophages, IL-1a HTRF, actives lie on both sides, screened at 100 nM (by protocol), cells primed 5 h with Pam3CSK4 first. Summed up:
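RAW264.7 mouse macrophages reverse-transfected with single siRNAs (100 nM final) for 48h, primed with Pam3CSK4 for 5 hours, then transfected with LipidA for 24 hour. Supernatant IL-1a read by HTRF; values normalized to negative-control median, log-transformed robust z-scores.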
For GGUCCAAUUAACUUCACCGTT against Myl2, the z-score was inactive: -0.692.

With GGACAAAAUUAGACCUUUGTT against Arf2, the z-score was inactive: 0.47.

“GGCAUGACUAUAACCAUUUTT against 1110004F10Rik”: the z-score is inactive: 1.23.

For GGAGAGAUUUCUUGGUAAATT against Tex261, the z-score was inactive: 0.108.

As to GUCUUCAGCAGUCUUCAGGTT against Sprr2f, the z-score is inactive: -1.1.

For GCAAGUGGUGUCGCUGUCATT against Olfr1349, the z-score was inactive: -1.18.

For the sequence GAUCCUUGACUACAUCUAUTT against Asic4, the z-score was inactive: -0.422.

For GGAAUUCUUGAAGAUUCCCTT against Ptpn7, the z-score was inactive: 0.884.

On to CCUUGAGUACUUAUUGCGUTT against Chac1, for which the z-score is inactive: 0.934.

With CUGCUAUGACGACAACUACTT against Klk1b3, the z-score is inactive: 0.919.

In the case of CCCUACGUGACAACCAGCATT against Tspyl2, the z-score is inactive: -0.165.

Consider CCGUACAGAUUGAGAAUACTT against Lmbrd1, for which the z-score is inactive: -0.79.

In the case of CCGUCAAAAGGGAAUUUCATT against Abca17, the z-score was inactive: -0.689.

Turning to GGCCAGGCUUUUGACUUUATT against Acy3, the z-score was inactive: -0.609.

GGAGAGUAAAACCAAUACATT against Fam76a: the z-score was inactive: -0.0433.

GCUGUGUAGCAUUUUAACATT against Ank2: the z-score was inactive: -0.0376.

As for “CCCUUGAACAUUCUACUCUTT against 1700012A03Rik”, the z-score was inactive: -0.955.

As to GGUAGACGACAUUGAUGAATT against Sgf29, the z-score is inactive: -0.744.

As for GGUUAAUUUUCAGAAUGGATT against Canx, the z-score is inactive: -0.936.

On to GGCUUUCAUAAUAUAAGACTT against Kera, for which the z-score was inactive: 0.0662.

On to CGCAGUCCUUGACAUUAAATT against Rab3a, for which the z-score is inactive: 0.0328.

Turning to GGCCCAUGUAACAAAUAGATT against Tspan13, the z-score was inactive: -0.215.

As for GGUUUUAAGCUUGCUUAUGTT against Ucma, the z-score is inactive: 0.4.

For “CGUGCCUGCUCAAUUAAUUTT against 1700067P10Rik”, the z-score is active: 2.46.

On to GGUCUACGCUAUCCUAGUUTT against Grin1, for which the z-score was active: -2.23.

On to CCUGAAUAUAUAGUGCAUGTT against Cend1, for which the z-score is inactive: -0.265.

For the sequence GGUGAUGUUUCUCACUGUCTT against A2m, the z-score is inactive: -1.17.

As to CCAAGAGCUGAAACAAGAATT against Ankrd12, the z-score was active: -2.01.

Take GGCACUUUUAUUCUUCUCUTT against Zmpste24: the z-score is inactive: -0.362.

Take GCACUGAAAGUCUACGUCCTT against Rara: the z-score is inactive: 0.207.

Take GCACAUUGCUCACAAGCAUTT against Zfp942: the z-score is inactive: 0.669.

Consider GGUGUUCCUGGUGAAGCAATT against Camk1g, for which the z-score is inactive: 0.875.

In the case of GGCGGAUAUCUUGAAAAACTT against Ntf3, the z-score was inactive: -0.0373.

Turning to GCCUCAAGUUGAUAAGGAUTT against Ubqlnl, the z-score is inactive: -0.689.

Consider GGCUAUGGACCGAAAGAUUTT against Dgcr6, for which the z-score is inactive: -1.42.

Take CCUGACAGGUUUAUGUGAATT against Cbl: the z-score was inactive: 0.836.

Regarding GGCUAACUCCCAUAAAGAUTT against Ces4a, the z-score is inactive: -1.31.

On to GCUGGAAAACCGACAACUCTT against Gripap1, for which the z-score was inactive: -0.175.

For GGACCGACCAAGUUUUUCATT against Tm2d2, the z-score is inactive: 0.997.

For the sequence GGUCUUUCAAGUUGCAUACTT against Lama1, the z-score was inactive: 0.491.

For the sequence GGUUAGACCAAUAAAAAGCTT against Pfdn1, the z-score is inactive: 0.154.

Regarding GGCAAAUGGAAACAGCCAUTT against Serpina1d, the z-score was inactive: -1.56.

Regarding GUUUUUCAUACAGUAGUAGTT against Vmn1r27, the z-score was inactive: 0.42.

Consider CGUUGUUCUUAUCCUGAGGTT against Olfr448, for which the z-score is inactive: -0.864.

Take GAAGCCUAUUGCUCAAGAUTT against Fbxw24: the z-score was inactive: 0.896.

Regarding CCGCCAUGACAUUAUGCUGTT against Klk15, the z-score is inactive: 0.433.

As to CCUGUGCUCUUAUUAUCAATT against Rpp14, the z-score was inactive: 0.693.

In the case of GGCUUUCAGUAAGAAGAUGTT against Snx33, the z-score is inactive: -1.24.

Take GCUGAAAUCUCCAAAUACCTT against Arl5b: the z-score was inactive: 1.52.

For GGUUCUUUUUGGUUUAGGUTT against Tm9sf4, the z-score was inactive: 0.259.

As for GGGUCCAAUAAACAUGUCUTT against B3galt4, the z-score is inactive: 0.234.

Regarding GGAAAUGCAGUUGUGAAUGTT against Rab4a, the z-score was active: -2.03.

Consider CGGGAGACUGGUUAUCAACTT against Eipr1, for which the z-score was inactive: -1.77.

As for “GGCCAUCUUGAAUUUUUUATT against 2410002F23Rik”, the z-score is inactive: 0.0652.

Turning to GGAAGGCCAUUUCAACUAATT against Olfr1367, the z-score is inactive: 1.54.

Turning to GGGCACACUGAUGUGGUCATT against Fem1b, the z-score was inactive: -1.55.

Take GCACAAGCCUCAAGACGUATT against Mgat4b: the z-score is inactive: 0.182.

Consider GGACGGAUCUGAAAGAUACTT against Zfp251, for which the z-score was inactive: 0.325.

Turning to GGUGUUUUAUACACUCUGUTT against Mgme1, the z-score was inactive: -1.85.

Take ACAAUGGUGAGUAAUAGCATT against Olfr730: the z-score was inactive: -0.0347.

In the case of GGUCAUACACUUCUGCACATT against Ap5z1, the z-score is inactive: -0.805.

Consider “GCAAUUUCUAUUUGGUGGGTT against B630019K06Rik”, for which the z-score was inactive: -0.354.

In the case of “GGCAAGACCCAUUAAAUGATT against B230219D22Rik”, the z-score is inactive: 0.951.

On to GGUCUAUGCAAUAAAGGUUTT against Sphk2, for which the z-score was inactive: -0.351.

Regarding GCUCAAUCGAUACUCAGAUTT against Lzts1, the z-score is inactive: -0.144.

Take GCAUCAUUAUCUCGGUACUTT against Izumo1: the z-score is inactive: 1.71.

In the case of GGAUAUCAUCAGUUUGGUUTT against Iigp1b, the z-score is inactive: -0.0729.

As for GGAAGCAGCAAAGAAGUUGTT against Olfr1109, the z-score was inactive: 0.918.

In the case of GGCAUCAUAAUGGCAUCGGTT against Aoc2, the z-score is inactive: -1.15.

On to UUUGAACUUUCGAACCCGCTT against Tuba1c, for which the z-score is inactive: 1.89.

For GGCAAGGACUCCAAGGACATT against Wdr45, the z-score is inactive: -1.31.

Regarding CCAAAAUGAGGGCAUCUAUTT against Mvp, the z-score was inactive: -1.7.

GGAUUGUCGAAUGGGUGCUTT against Oard1: the z-score was inactive: -1.78.

With GGCUUGGUGAGCUACCUACTT against Wdr62, the z-score was inactive: -0.839.

Turning to GGAAAUGUUGCCGUUGUCCTT against Mfsd8, the z-score is active: 2.13.

As to CCACUAUGAAUCGUGGUUCTT against Sp6, the z-score was inactive: 0.731.

In the case of GGCCGAAGAAUUCAUCUUUTT against Pomgnt2, the z-score is inactive: -0.339.

With GGGUCCUUUGUCACAUUCATT against Psmd7, the z-score was inactive: 1.34.

As to GGAUUAAUGUUUCCUGACUTT against Mturn, the z-score is inactive: 0.704.

With GGUAUUCAAGGUAAGAAAGTT against Ercc5, the z-score is inactive: -1.14.

In the case of CCUUCAGAUCAUUCUUAGATT against Klhl9, the z-score was inactive: 0.493.

GCAAGUUUCACAGAAUGACTT against Loxl4: the z-score was inactive: 0.058.

Turning to GCGCAGCACAGGUUUUGAATT against Klf10, the z-score is inactive: -0.217.

For GGCUGAGUUACGGUUAAAGTT against Ndufb5, the z-score is inactive: 0.187.

In the case of GGUUUCUCGAGAAGUUACCTT against Nab1, the z-score is inactive: -1.24.

For the sequence CCUCAGUGGUAUAGAGGUATT against Gpr84, the z-score is inactive: 0.788.

For the sequence GGAUUCUGAACACUUUUUCTT against Pot1a, the z-score is active: -2.02.

Turning to CCUACAGAGACUAUUCACUTT against Fiz1, the z-score is inactive: 1.34.

For GCUCAGUAAUCUGAGGCCATT against Lox, the z-score was active: -2.03.

On to CCGGCUAAACAUUAUUCAUTT against Fpgs, for which the z-score is inactive: 1.85.

On to CCUCAUGUCUGGCAUCUUGTT against Egr4, for which the z-score is inactive: -1.7.

For GGAAUAUAUCUCCAAACAGTT against Ccdc7b, the z-score is inactive: -0.469.

With GGUAUAAAGGAUGCAUUCATT against Osmr, the z-score was inactive: 0.512.

On to GCCUUCUGCCGUUAUUAAUTT against Slc15a5, for which the z-score is inactive: 1.56.

As for GGAAAAUGAGCAAGAAGAATT against Syt12, the z-score was inactive: -0.784.

GCUCAAACUUUACUAUACATT against Cdh6: the z-score is inactive: -0.675.

Turning to GGACCUUCUAGAAGACAAGTT against Gna11, the z-score is inactive: 1.31.

For GGACCAAGUAUCAUGAUGUTT against Zfp369, the z-score is inactive: 0.222.

For GGGAUGAAGACACGAUCAUTT against Sult2a8, the z-score is inactive: 1.26.

Turning to GGCCAGAACUACGAAGCCATT against Capn12, the z-score is inactive: 0.981.

As for CGAACAUUCCUUCCAUAACTT against Kcnd3, the z-score was inactive: 0.609.

With GGCUGAGAGUCCAAAAAGGTT against Dok3, the z-score was inactive: -0.126.

Take GGGUCUUGUUAAUCUGUAUTT against Med1: the z-score is inactive: -0.318.

In the case of CCUUCCAUGGUGAGGAUAATT against Stim1, the z-score was active: -2.

For GCUUGGAAGACAUUGACCCTT against Brsk2, the z-score was inactive: -0.996.

In the case of GGGUAUCAUUACAGAUACGTT against Tpbg, the z-score is inactive: 0.277.

For GGAAGUCACUUGCCCAAGGTT against Prm2, the z-score was inactive: 0.757.
